No constants are given. Whether binding was seen depends on the method and setting. Some results given as binding are weak or reduced against the parent protein; the word gives no strength.
B1: C38C4 (antibody, V domains shown)
VH: EVQLVQSGAEVKKPGASVKVSCKVSGYTLTELSMHWVRQAPGKGLEWMGGFDPEDGETIYAQKFQGRVTMTEDTSTDTAYMELSSLRSEDTAVYYCATENSNYVYFQHWGQGTLVTVSS
VL: QSALTQPPSASGAPGQRVTISCSGSSANIGSNTVDWYQKLPGTAPRLLIYNDDHRPSGVPDRFSASTSGNTASLTIAGAQAEDEGDYYCNSRDNNDQHYVFGSGTKVTVL
B2: C38C9 (antibody, V domains shown)
VH: EVQLVESGGGVVQPGRSLRLSCAASGFTFSSYDMHWVRQATGKGLEWVSAIGTAGDTYYPGSVKGRFTISRDNSKNTLYLQMNSLRAEDTAVYYCARDSWFGELSLDYWGQGTLVTVSS
VL: QAVVTQAPSVSAAPGQKVTISCSGSSSNIGNNYVSWYQQLPGTAPKLLIYDNNKRPSGIPDRFSGSKSGTSATLGITGLQTGDEADYYCGTWDSSLSAAVFGGGTKLTVL
B3: C38D1 (antibody, V domains shown)
VH: EVQLVQSGGGVVQPGRSLRVSCAASGFTFSSYGMHWVRQTPGKGLEWVAGIWYDENDKYYADSVKGRFTISRDNSKNTLHLQMNSLRAEDTAVYYCARQFRDYYFDVWGRGTLVTVSS
VL: QSALTQPPSVSAAPGQKVTISCSGSSSNIGNNYVSWYQQLPGTAPKLLIYDNNKRPSGIPDRFSGSKSGTSATLGITGLQTGDEADYYCGTWDSSLGGVFGTGTKLTVL
B4: C38D2 (antibody, V domains shown)
VH: QVQLVQSGSEVKKPGASLHLSCKASGYTFINHYMHWVRQAPGQGLEWMGVINPRGGSTTYAQKFQGRVAMTTDTSTYTVYMEVNSLRSDDTAVYFCARGSDNALADYYNSYDMDVWGQGTTVTVSS
VL: AIRMTQSPSSLSASVGDRVTITCRASQGISSALAWYQQKPGKAPKLLIYDASSLESGVPSRFSGSGSGTDFTLTISSLQPEDFATYYCQQANSFPLTFGQGTKLEIK
B5: C38D5 (antibody, V domains shown)
VH: QVQLQQWGAGLLKPSETLSLTCAVYGGSFSGYYWSWIRQPPGKGLEWIGEINHSGSTNYNPSLKSRVTISVDTSKNQFSLKLSSVTAADTAVYYCAREGLRHSFDIWGQGTMVTVSS
VL: QSVVTQPPSVSAAPGQKVTISCSGSNSNIGSNYVSWYQHLPGTAPKLLIYDNNNRPSGIPDRFSGSKSGTSATLGITGLQTGDEANYYCATWDTSLSGWVFGGGTKLTVL
B6: C38D10 (antibody, V domains shown)
VH: QVQLVESGGGLVQPGGSLRLSCAASGFTVSGNYMNWVRQAPGKGLEWVSVIYSGGDTYYADSVKGRFTVSRDNSKNTLYLQMNSLTAEDTAVYYCAREYSGYYYGMDVWGQGTTVTVSS
VL: QSVLTQPHSASGTPGQRVTISCSGSSSNIGGNTVNWYQQLPGTAPRLLIYTNNKRPSGVPDRFSGSKSGTSASLAISGLQSEDEADYYCAAWDNSLKGYVFGTGTKLTVL
B7: C38D11 (antibody, V domains shown)
VH: QVQLQQWGAGLLKPSETLSLTCAVYGGSFNGYYWSWIRQPPGKGLEWIGEINHSGSTNYNPSLKSRPTISVDTSKNQFSLNLSSVTAADTAVYYCARAGTVYYYYGMDVWGQGTTVTVSS
VL: QSVVTQPPSVSAAPGQKVTISCSGSNSNIANNYVSWYQQLPGTAPKLLIYDNNKRPSGIPDRFSGSKSGTSATLGITGLQTGDEADYYCETWDSSLSAVVFGGGTKLTVL
B8: C38F8 (antibody, V domains shown)
VH: QVQLVQSGAEVKKPGESLEISCKDFGDSFTNYWIGWVRQMPGKGLEWMGIIYPGDSDTRYSPSFQGQVTISADKSINTAYLQWSSLKASDTAMYYCATFSRELMGFGAWGQGTLVTVSS
VL: QSVLTQPPSVSATPGQRVTISCSGSSSNIGNNYVSWYQQLPGTAPKLLIYDNNKRPSGIPDRFSGSKSGTSAILDITGLQTGDEADYYCGTWDSSLSAEVFGTGTKLTVL
B9: C38G8 (antibody, V domains shown)
VH: EVQLLESGGGLVQPGRSLRLSCAASGFTFSSYGMHWVRQAPGKGLEWVSYISSSSSTIYYADSVKGRFTISRDNAKNSLYLQMNSLRDEDTAVYYCARDEDYYYGMDVWGQGTTVTVSS
VL: DIVMTQTPSSLSASVGDRVTITCQASQDINGYLNWYQQKPGKAPKLLIYGASNLEKGVPSRFSGSGSGTDFTFTVSSLQSEDIATYYCQQYDDLPLTFGAGTKVEIK
B10: C38A1 (antibody, V domains shown)
VH: QVQLVESGAEVKKPGASVKVSCRASGYTFTNYHLHWVRQAPGQGLEWVGTINPRGGSTTYAQKFQGRVAMTSDTSTSTVYMEVNRLRSDDTAVYFCARGSDNALADFYNYYDMDVWGQGTTVTVSS
VL: QAVVTQPPSVSAAPGQKVTISCSGSSSNIGNNYVSWYQQLPGTAPKLLIYDNNERPSGIPGRFSGSKSGTSATLGITGLQTGDEADYYCGTWDSSLSAGVFGGGTKLTVL
B11: C38B1 (antibody, V domains shown)
VH: EVQLLESGAEVKKPGASVKVSCKASGYTFTSYGISWVRQAPGQGLEWMGWISAYNGNTNYAQKLQGRVTMTTDTSTSTAYMELRSLRSDDTAVYYCARTDLLYCSSTSCYHNGVGMDVWGQGTTVTVSS
VL: QAVLTQPPSASGSPGQSVTISCTGTSSDVGGYNYVSWYQQHPDKAPKLIIYEVTKRPSGVPGRFSGSKSGNTASLTVSGLQAEDEADYYCGSYAGNNNYVFGTGTKVTVL
B12: C38B7 (antibody, V domains shown)
VH: QVQLVQSGAEVKKPGSSVKVSCKSSGGTLRNYVINWVRQAPGQGLEWMGRITPFLGESESAQKFQNRVTITADTSINTAYMELSSLRSEDTAVYYCARETVGATAADWYFDLWGRGTLVTVSS
VL: QSVLTQPASVSGSPGQSITISCTGTSSDVGAYNYVSWYQQLPGTAPKVLSYSNDHRPSGVPDRFSGSKSGTSASLAISGLQSEDEADYYCAAWDDSLNNYVFGTGTKVTVL

Amino acid sequences for entries named in this document (tags omitted). Residues count along the entry.
UniProt P28907, residues 43-300: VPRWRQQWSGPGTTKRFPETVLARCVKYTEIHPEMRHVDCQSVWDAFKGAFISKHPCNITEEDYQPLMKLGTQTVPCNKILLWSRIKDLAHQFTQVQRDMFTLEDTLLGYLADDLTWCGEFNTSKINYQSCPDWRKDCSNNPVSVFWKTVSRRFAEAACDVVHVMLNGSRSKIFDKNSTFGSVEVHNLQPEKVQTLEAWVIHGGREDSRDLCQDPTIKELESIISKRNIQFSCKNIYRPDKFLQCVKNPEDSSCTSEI

Target: human CD38 (human) (UniProt P28907)
Assay: selection of antibodies, method not described

Row | Binder | binding
1 | B1 | binds
2 | B2 | binds
3 | B3 | binds
4 | B4 | binds
5 | B5 | binds
6 | B6 | binds
7 | B7 | binds
8 | B8 | binds
9 | B9 | binds
10 | B10 | binds
11 | B11 | binds
12 | B12 | binds

Source: patent US20170291959A1
